In PubChem BioAssay AID330 (DTP/NCI, 2004):
The list is a part of this screen's results and no random one: it gathers tests that were run many times, whatever their T/C, doses with no T/C, and many T/C values between a quarter and a half above the control. Other doses and runs of a compound stand elsewhere. T/C is the treated group as % of the vehicle group. Some entries give survivors of the animals treated and no T/C: the source files T/C as zero there, which appears to mark a toxic dose or a test without result, not a measured value. Some doses without a T/C left all or most animals alive at the check, yet need not have been tolerated: the source hardly ever lists a survival T/C far under the control, and the zero likely stands for such cases as well. Counts of survivors are from the toxicity check (mostly the fifth day) where no day follows; animals may have died later. Schedules are NCI's codes, read here as Q, the interval in days (D) or hours (H), X, the number of doses. Some entries were tested several times; their values stand side by side, smallest first. Signs of the kind (2×) count equal records among those shown. For survival time, the PubChem record calls one and a half times the control and up active, and a quarter to a half above the control has no call in these data; cut-offs in other NCI protocols can differ. Some T/C values carry the count of animals alive at the toxicity check (mostly the fifth day); without a count, all were alive then.

System: P388 leukemia ip, CD2F1 mice, survival T/C
Assay: NCI In Vivo Anticancer Drug Screen. Data for tumor model P388 Leukemia (intraperitoneal) in CD2F1 (CDF1) mice
Conditions: T/C endpoint: median survival time, higher T/C = longer survival
[1] = dose: 50.0 mg/kg/injection, schedule: Q01DX005 (ip), vehicle: Klucel (hydroxypropylcellulose) (HPC)
[2] = dose: 100.0 mg/kg/injection, schedule: Q01DX005 (ip), vehicle: Klucel (hydroxypropylcellulose) (HPC)
[3] = dose: 200.0 mg/kg/injection, schedule: Q01DX005 (ip), vehicle: Klucel (hydroxypropylcellulose) (HPC)
[4] = dose: 50.0 mg/kg/injection, schedule: Q01DX009 (ip), vehicle: saline with Tween-80
[5] = dose: 100.0 mg/kg/injection, schedule: Q01DX009 (ip), vehicle: saline with Tween-80
[6] = dose: 200.0 mg/kg/injection, schedule: Q01DX009 (ip), vehicle: saline with Tween-80
[7] = dose: 400.0 mg/kg/injection, schedule: Q04DX003 (ip), vehicle: saline with Tween-80
[8] = dose: 37.5 mg/kg/injection, schedule: Q01DX009 (ip), vehicle: water

O=C1C(CCl)=CS(=O)(=O)c2ccccc21
survivor count [1]: 2 of 6
survivor count [2]: 0 of 6
survivor count [3]: 0 of 6

CC(=O)NC(CS)C(=O)O (stereo not given)
T/C (dose: 50.0 mg/kg/injection, schedule: Q01DX009 (ip), vehicle: saline): 128 % of control
survivor count (dose: 400.0 mg/kg/injection, schedule: Q01DX009 (ip), vehicle: saline): 3 of 6

CC(=O)OC(CC(=O)CC(O)(C(F)(F)F)C(F)(F)F)(C(F)(F)F)C(F)(F)F
survivor count (dose: 25.0 mg/kg/injection, schedule: Q04DX003 (ip), vehicle: saline): 6 of 6

O=S(=O)(c1ccc2ccccc2c1)N(CCCCCN(S(=O)(=O)c1ccc2ccccc2c1)S(=O)(=O)c1ccc2ccccc2c1)S(=O)(=O)c1ccc2ccccc2c1
survivor count (dose: 240.0 mg/kg/injection, schedule: Q01DX005 (ip), vehicle: saline with Tween-80): 6 of 6

O=C(O)CNC(=O)C(CN1CC(=O)OC1c1ccc([N+](=O)[O-])cc1)N1C(=O)c2ccccc2C1=O (stereo not given)
survivor count (dose: 100.0 mg/kg/injection, schedule: Q04DX003 (ip), vehicle: saline with Tween-80): 6 of 6

C=C(Cl)C(=NC1CCCCC1)NC(C)(C)C
T/C (dose: 6.25 mg/kg/injection, schedule: Q01DX005 (ip), vehicle: Klucel (hydroxypropylcellulose) (HPC)): 126 and 127 % of control
survivor count (dose: 12.5 mg/kg/injection, schedule: Q01DX005 (ip), vehicle: Klucel (hydroxypropylcellulose) (HPC)): 2 of 6
survivor count [1]: 0 of 5
survivor count [2]: 0 of 5
survivor count [3]: 0 of 5

Clc1ccc2c(c1)C(c1ccccc1)=NCc1nncn1-2
survivor count (dose: 100.0 mg/kg/injection, schedule: Q01DX009 (ip), vehicle: Klucel (hydroxypropylcellulose) (HPC)): 5 of 6

BrCCN(CCBr)c1ccc2c3c(cccc13)-c1ccccc1-2
T/C (dose: 1.0 mg/kg/injection, schedule: Q01DX009 (ip), vehicle: saline with Tween-80): 128 % of control
T/C (dose: 2.0 mg/kg/injection, schedule: Q01DX009 (ip), vehicle: saline with Tween-80): 149 % of control
T/C (dose: 12.5 mg/kg/injection, schedule: Q01DX009 (ip), vehicle: saline with Tween-80): 140 % of control
survivor count (dose: 25.0 mg/kg/injection, schedule: Q01DX009 (ip), vehicle: saline with Tween-80): 6 of 6
survivor count [4]: 6 of 6
survivor count [5]: 6 of 6
survivor count [6]: 4 of 6
survivor count (dose: 264.0 mg/kg/injection, schedule: Q04DX003 (ip), vehicle: saline with Tween-80): 4 of 6
T/C [7]: 141 % of control
survivor count [7]: 2 of 6
survivor count (dose: 600.0 mg/kg/injection, schedule: Q04DX003 (ip), vehicle: saline with Tween-80): 1 of 6

CCOC(=O)C1=C(C(C)=O)C(c2ccc([N+](=O)[O-])cc2)C(C(C)=O)=C(C(=O)OCC)N1
survivor count (dose: 60.0 mg/kg/injection, schedule: Q01DX005 (ip), vehicle: Klucel (hydroxypropylcellulose) (HPC)): 1 of 6
survivor count (dose: 120.0 mg/kg/injection, schedule: Q01DX005 (ip), vehicle: Klucel (hydroxypropylcellulose) (HPC)): 0 of 6
survivor count (dose: 240.0 mg/kg/injection, schedule: Q01DX005 (ip), vehicle: Klucel (hydroxypropylcellulose) (HPC)): 0 of 6

CCN(CC)CCNC(=O)c1nn(-c2ccccc2)c2c1CCc1ccccc1-2
survivor count (dose: 200.0 mg/kg/injection, schedule: Q04DX003 (ip), vehicle: saline): 1 of 6
survivor count (dose: 400.0 mg/kg/injection, schedule: Q04DX003 (ip), vehicle: saline): 0 of 6

Cn1c(=O)c2[nH]c(CN(CCCl)CCCl)nc2n(C)c1=O
T/C (dose: 1.5 mg/kg/injection, schedule: Q01DX009 (ip), vehicle: saline with Tween-80): 127 % of control
T/C (dose: 2.25 mg/kg/injection, schedule: Q01DX009 (ip), vehicle: saline with Tween-80): 143 % of control
T/C (dose: 2.66 mg/kg/injection, schedule: Q04DX003 (ip), vehicle: saline with Tween-80): 127 % of control
T/C (dose: 4.0 mg/kg/injection, schedule: Q04DX003 (ip), vehicle: saline with Tween-80): 131 % of control
T/C (dose: 4.4 mg/kg/injection, schedule: Q04DX003 (ip), vehicle: saline with Tween-80): 140 % of control
T/C (dose: 6.0 mg/kg/injection, schedule: Q04DX003 (ip), vehicle: saline with Tween-80): 140 % of control
T/C (dose: 15.0 mg/kg/injection, schedule: Q04DX003 (ip), vehicle: saline with Tween-80): 145 % of control
survivor count [4]: 4 of 6

COc1cc2c(cc1O)NC(OC)C1CC(O)CN1C2=O (stereo not given)
T/C (dose: 4.0 mg/kg/injection, schedule: Q01DX005 (ip), vehicle: saline with Tween-80): 128 and 133 % of control
T/C (dose: 8.0 mg/kg/injection, schedule: Q01DX005 (ip), vehicle: saline with Tween-80): 128 and 130 % of control [5 of 6 alive]
survivor count (dose: 16.0 mg/kg/injection, schedule: Q01DX005 (ip), vehicle: saline with Tween-80): 4 of 6
survivor count (dose: 32.0 mg/kg/injection, schedule: Q01DX005 (ip), vehicle: saline with Tween-80): 0 of 6

Cn1c([N+](=O)[O-])cnc1/C=C1\CCc2cc(OCCN3CCCC3)ccc2C1=O
survivor count [4]: 1 of 6 and 2 of 6
survivor count [5]: 0 of 6
survivor count [6]: 0 of 6

N=[N+]=CC(=O)OCC(N)C(=O)O (stereo not given)
T/C (dose: 2.3 mg/kg/injection, schedule: Q01DX009 (ip), vehicle: water): 144 % of control
T/C (dose: 2.35 mg/kg/injection, schedule: Q01DX009 (ip), vehicle: water): 134 % of control
T/C (dose: 2.5 mg/kg/injection, schedule: Q01DX009 (ip), vehicle: saline): 128 % of control
T/C (dose: 3.24 mg/kg/injection, schedule: Q01DX009 (ip), vehicle: saline): 136 % of control
T/C (dose: 4.7 mg/kg/injection, schedule: Q01DX009 (ip), vehicle: water, evaluated on day 30): 116, 131, 141 % of control
T/C (dose: 4.7 mg/kg/injection, schedule: Q01DX009 (ip), vehicle: water, evaluated on day 45): 141 and 148 % of control
T/C (dose: 5.0 mg/kg/injection, schedule: Q01DX009 (ip), vehicle: saline): 140 and 142 % of control
T/C (dose: 5.4 mg/kg/injection, schedule: Q01DX009 (ip), vehicle: saline): 132 and 140 % of control
T/C (dose: 9.0 mg/kg/injection, schedule: Q01DX009 (ip), vehicle: saline): 138 and 141 % of control
T/C (dose: 9.4 mg/kg/injection, schedule: Q01DX009 (ip), vehicle: water, evaluated on day 30): 133, 150, 156 % of control
T/C (dose: 9.4 mg/kg/injection, schedule: Q01DX009 (ip), vehicle: water, evaluated on day 45): 146 and 157 % of control
T/C (dose: 10.0 mg/kg/injection, schedule: Q01DX009 (ip), vehicle: saline): 133 and 142 % of control
T/C (dose: 12.5 mg/kg/injection, schedule: Q04DX003 (ip), vehicle: water): 129 % of control
T/C (dose: 15.0 mg/kg/injection, schedule: Q01DX009 (ip), vehicle: saline): 144 and 148 % of control
survivor count (dose: 18.75 mg/kg/injection, schedule: Q01DX009 (ip), vehicle: water): 3 of 4 and 4 of 4
T/C (dose: 18.8 mg/kg/injection, schedule: Q01DX009 (ip), vehicle: water): 142 % of control
T/C (dose: 20.0 mg/kg/injection, schedule: Q01DX009 (ip), vehicle: saline): 143 % of control
T/C (dose: 25.0 mg/kg/injection, schedule: Q01DX009 (ip), vehicle: saline): 149 % of control
T/C [8]: 154 % of control
survivor count [8]: 3 of 4, 4 of 4 (2×), 6 of 6

O=C(NC1CCOC1=O)OCc1ccccc1 (stereo not given)
survivor count (dose: 12.5 mg/kg/injection, schedule: Q01DX009 (ip), vehicle: distilled water + Tween-80): 6 of 6

CCOC(=O)c1cc2c(nn3c(C)cccc23)n(CC)c1=N
survivor count (dose: 100.0 mg/kg/injection, schedule: Q01DX001 (ip), vehicle: saline with Tween-80): 0 of 6
survivor count (dose: 200.0 mg/kg/injection, schedule: Q01DX001 (ip), vehicle: saline with Tween-80): 0 of 6
survivor count (dose: 400.0 mg/kg/injection, schedule: Q01DX001 (ip), vehicle: saline with Tween-80): 0 of 6

N=C(N)c1ccc(N=Nc2cc(/C=C/c3ccccc3)ccc2O)cc1
survivor count [3]: 0 of 6
